Sequences and labels used below:
B1: Atp5 (oligomycin sensitivity conferring protein, OSCP) (protein, UniProt P09457 18-212)
chain: ASKAAAPPPVRLFGVEGTYATALYQAAAKNSSIDAAFQSLQKVESTVKKNPKLGHLLLNPALSLKDRNSVIDAIVETHKNLDGYVVNLLKVLSENNRLGCFEKIASDFGVLNDAHNGLLKGTVTSAEPLDPKSFKRIEKALSASKLVGQGKSLKLENVVKPEIKGGLIVELGDKTVDLSISTKIQKLNKVLEDSI
B2: Atp5, mildly overexpressed from a galactose-inducible promoter (untagged) (protein, UniProt P09457 18-212)
chain: ASKAAAPPPVRLFGVEGTYATALYQAAAKNSSIDAAFQSLQKVESTVKKNPKLGHLLLNPALSLKDRNSVIDAIVETHKNLDGYVVNLLKVLSENNRLGCFEKIASDFGVLNDAHNGLLKGTVTSAEPLDPKSFKRIEKALSASKLVGQGKSLKLENVVKPEIKGGLIVELGDKTVDLSISTKIQKLNKVLEDSI
B3: Atp5^G183A, mildly overexpressed from a galactose-inducible promoter (untagged) (protein, UniProt P09457 18-212)
chain: ASKAAAPPPVRLFGVEGTYATALYQAAAKNSSIDAAFQSLQKVESTVKKNPKLGHLLLNPALSLKDRNSVIDAIVETHKNLDGYVVNLLKVLSENNRLGCFEKIASDFGVLNDAHNGLLKGTVTSAEPLDPKSFKRIEKALSASKLVGQGKSLKLENVVKPEIKGALIVELGDKTVDLSISTKIQKLNKVLEDSI

Protein sequences, listed by entry. Tags and fused reporters are not part of them. Lines headed by an entry give the natural chain unless they say otherwise; changes in a name come on top.
UniProt P0CS90: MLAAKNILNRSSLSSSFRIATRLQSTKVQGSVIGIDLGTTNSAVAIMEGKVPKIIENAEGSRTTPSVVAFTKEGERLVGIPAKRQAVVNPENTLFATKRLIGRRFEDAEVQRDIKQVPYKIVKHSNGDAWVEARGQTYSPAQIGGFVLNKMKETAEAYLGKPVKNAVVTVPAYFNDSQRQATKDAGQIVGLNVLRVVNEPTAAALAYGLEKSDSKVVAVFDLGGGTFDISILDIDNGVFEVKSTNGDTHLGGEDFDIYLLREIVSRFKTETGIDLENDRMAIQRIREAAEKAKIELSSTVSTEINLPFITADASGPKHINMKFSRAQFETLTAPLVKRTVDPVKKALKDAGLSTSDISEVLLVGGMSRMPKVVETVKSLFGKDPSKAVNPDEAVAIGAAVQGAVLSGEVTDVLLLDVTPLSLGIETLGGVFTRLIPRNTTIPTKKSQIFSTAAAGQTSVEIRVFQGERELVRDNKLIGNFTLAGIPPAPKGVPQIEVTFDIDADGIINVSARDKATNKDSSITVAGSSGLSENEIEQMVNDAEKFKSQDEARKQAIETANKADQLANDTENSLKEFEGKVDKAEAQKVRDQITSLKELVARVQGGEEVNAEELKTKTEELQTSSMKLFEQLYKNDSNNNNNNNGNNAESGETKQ

Results are given in words; binding and its absence hold for the method and conditions named. In cells and extracts the contact can be indirect. Binding can be weak; no strength is given. Sequences can lack the tags named with a protein.

The assay deals with mutated mtHsp70 of the temperature-sensitive allele ssc1-62 (S. cerevisiae) (UniProt P0CS90). The experiment in a line: pull-down; mtHsp70 with its bound proteins captured on Mge1His-coated Ni-NTA agarose from digitonin lysates of mitochondria (wild type, ρ0, atp3∆, atp4∆, atp5∆, atp7∆, atp14∆, ina17∆, ina22∆, ssc1-62, cells overexpressing Atp5 or Atp5^G183A); SDS-PAGE and immunodetection.
Turning to B1, the binding result was “binds weakly”.

Consider B2, for which the binding result is “no binding”.

Consider B3, for which the binding entry is “no binding”.

For the origin of these results see PMC9810599.
